Data reported in publication doi:10.1101/647073.
No constants are given. Whether binding was seen depends on the method and setting. Binding seen in cells or lysates may run through a third protein. Some results given as binding are weak or reduced against the parent protein; the word gives no strength. Tags and fused reporters may be left off the sequences shown.

T1: GFP-Nol9 (full length human Nol9, residues 1-702) (Homo sapiens) (UniProt Q5SY16)
T1 sequence: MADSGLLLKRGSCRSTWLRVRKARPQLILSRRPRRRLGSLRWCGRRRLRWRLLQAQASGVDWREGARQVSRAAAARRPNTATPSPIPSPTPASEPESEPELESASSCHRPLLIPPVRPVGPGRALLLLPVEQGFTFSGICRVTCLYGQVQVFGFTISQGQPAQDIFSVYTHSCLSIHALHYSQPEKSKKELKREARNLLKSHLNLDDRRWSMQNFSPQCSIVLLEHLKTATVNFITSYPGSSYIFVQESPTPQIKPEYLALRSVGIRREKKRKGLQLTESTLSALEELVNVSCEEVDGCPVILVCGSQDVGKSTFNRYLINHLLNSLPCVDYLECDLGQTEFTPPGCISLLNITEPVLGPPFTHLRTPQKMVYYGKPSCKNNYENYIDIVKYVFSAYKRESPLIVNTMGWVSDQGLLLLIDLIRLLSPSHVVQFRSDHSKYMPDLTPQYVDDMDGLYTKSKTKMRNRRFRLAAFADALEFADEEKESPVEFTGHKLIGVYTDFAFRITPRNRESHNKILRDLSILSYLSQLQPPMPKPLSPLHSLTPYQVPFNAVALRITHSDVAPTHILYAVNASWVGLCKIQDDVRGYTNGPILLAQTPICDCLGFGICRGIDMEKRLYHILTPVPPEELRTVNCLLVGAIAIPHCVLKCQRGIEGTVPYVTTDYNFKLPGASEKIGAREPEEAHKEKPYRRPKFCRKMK

T2: GFP-Las1L (full length human Las1L, residues 1-734) (Homo sapiens) (UniProt Q9Y4W2)
T2 sequence: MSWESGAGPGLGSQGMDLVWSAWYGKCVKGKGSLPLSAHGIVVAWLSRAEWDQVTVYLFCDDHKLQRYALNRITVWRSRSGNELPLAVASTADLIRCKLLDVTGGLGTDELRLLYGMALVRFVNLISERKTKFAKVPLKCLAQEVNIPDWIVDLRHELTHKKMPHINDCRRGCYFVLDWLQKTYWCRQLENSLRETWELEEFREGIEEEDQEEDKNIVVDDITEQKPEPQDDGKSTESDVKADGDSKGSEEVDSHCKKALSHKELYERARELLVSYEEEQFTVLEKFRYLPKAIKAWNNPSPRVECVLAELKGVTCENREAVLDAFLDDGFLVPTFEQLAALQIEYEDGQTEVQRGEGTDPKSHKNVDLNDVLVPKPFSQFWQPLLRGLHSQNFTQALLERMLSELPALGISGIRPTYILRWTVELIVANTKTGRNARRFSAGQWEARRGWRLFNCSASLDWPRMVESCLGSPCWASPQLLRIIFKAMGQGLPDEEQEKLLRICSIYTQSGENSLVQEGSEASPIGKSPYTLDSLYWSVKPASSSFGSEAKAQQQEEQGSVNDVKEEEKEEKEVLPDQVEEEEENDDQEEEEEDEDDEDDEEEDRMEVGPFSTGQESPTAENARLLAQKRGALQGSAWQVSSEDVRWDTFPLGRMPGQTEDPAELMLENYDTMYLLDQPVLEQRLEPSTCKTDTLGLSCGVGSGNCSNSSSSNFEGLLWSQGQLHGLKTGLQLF


Experiments:
[1] = molecular target: T1, GFP-Nol9 (full length human Nol9, residues 1-702) (Homo sapiens); test: co-IP
[2] = molecular target: T2, GFP-Las1L (full length human Las1L, residues 1-734) (Homo sapiens); test: co-IP

| binding [1] | binding [2] | Binder |
| --- | --- | --- |
| binds |  | GST-Nol9 (full length human Nol9) (protein, UniProt Q5SY16 1-702) MADSGLLLKRGSCRSTWLRVRKARPQLILSRRPRRRLGSLRWCGRRRLRWRLLQAQASGVDWREGARQVSRAAAARRPNTATPSPIPSPTPASEPESEPELESASSCHRPLLIPPVRPVGPGRALLLLPVEQGFTFSGICRVTCLYGQVQVFGFTISQGQPAQDIFSVYTHSCLSIHALHYSQPEKSKKELKREARNLLKSHLNLDDRRWSMQNFSPQCSIVLLEHLKTATVNFITSYPGSSYIFVQESPTPQIKPEYLALRSVGIRREKKRKGLQLTESTLSALEELVNVSCEEVDGCPVILVCGSQDVGKSTFNRYLINHLLNSLPCVDYLECDLGQTEFTPPGCISLLNITEPVLGPPFTHLRTPQKMVYYGKPSCKNNYENYIDIVKYVFSAYKRESPLIVNTMGWVSDQGLLLLIDLIRLLSPSHVVQFRSDHSKYMPDLTPQYVDDMDGLYTKSKTKMRNRRFRLAAFADALEFADEEKESPVEFTGHKLIGVYTDFAFRITPRNRESHNKILRDLSILSYLSQLQPPMPKPLSPLHSLTPYQVPFNAVALRITHSDVAPTHILYAVNASWVGLCKIQDDVRGYTNGPILLAQTPICDCLGFGICRGIDMEKRLYHILTPVPPEELRTVNCLLVGAIAIPHCVLKCQRGIEGTVPYVTTDYNFKLPGASEKIGAREPEEAHKEKPYRRPKFCRKMK |
|  | binds | Strep-Las1L (full length human Las1L, residues 1-734) (protein, UniProt Q9Y4W2 1-734) MSWESGAGPGLGSQGMDLVWSAWYGKCVKGKGSLPLSAHGIVVAWLSRAEWDQVTVYLFCDDHKLQRYALNRITVWRSRSGNELPLAVASTADLIRCKLLDVTGGLGTDELRLLYGMALVRFVNLISERKTKFAKVPLKCLAQEVNIPDWIVDLRHELTHKKMPHINDCRRGCYFVLDWLQKTYWCRQLENSLRETWELEEFREGIEEEDQEEDKNIVVDDITEQKPEPQDDGKSTESDVKADGDSKGSEEVDSHCKKALSHKELYERARELLVSYEEEQFTVLEKFRYLPKAIKAWNNPSPRVECVLAELKGVTCENREAVLDAFLDDGFLVPTFEQLAALQIEYEDGQTEVQRGEGTDPKSHKNVDLNDVLVPKPFSQFWQPLLRGLHSQNFTQALLERMLSELPALGISGIRPTYILRWTVELIVANTKTGRNARRFSAGQWEARRGWRLFNCSASLDWPRMVESCLGSPCWASPQLLRIIFKAMGQGLPDEEQEKLLRICSIYTQSGENSLVQEGSEASPIGKSPYTLDSLYWSVKPASSSFGSEAKAQQQEEQGSVNDVKEEEKEEKEVLPDQVEEEEENDDQEEEEEDEDDEDDEEEDRMEVGPFSTGQESPTAENARLLAQKRGALQGSAWQVSSEDVRWDTFPLGRMPGQTEDPAELMLENYDTMYLLDQPVLEQRLEPSTCKTDTLGLSCGVGSGNCSNSSSSNFEGLLWSQGQLHGLKTGLQLF |
